# Measured values: article PMC12670160, “A drug-repurposing screen of FDA- and EMA-approved drugs identifies two NF-κB inhibitors active against eumycetoma” (Journal of Antimicrobial Chemotherapy, 2025)
# Counter-ions that a name gives are not always drawn. Among all 5,300 compounds or so, about 130 (2.5%) showed an effect of 50% or more. Some of the results follow.
# Test system: M. mycetomatis strain mm55
# Settings: primary screen, metabolic activity vs growth control; 96 h, 2 µM; inhibitor
row,SMILES,% viability [%]
1,"CC(C)(Sc1cc(C(C)(C)C)c(O)c(C(C)(C)C)c1)Sc1cc(C(C)(C)C)c(O)c(C(C)(C)C)c1 [ONC0000665, probucol]",99.79
2,"COC(=O)c1sccc1S(=O)(=O)Nc1ccc(Nc2ccccc2)cc1OC [ONC0000053, gsk0660]",99.51
3,"Cc1ccc(OC[C@@H](O)[C@H](C)NC(C)C)c2c1CCC2 [ONC0001929, ici118551]",52.35
4,"N[C@@H]1[C@@H](O)[C@H](O)[C@@H](CO)O[C@H]1O [ONC0000404, glucosamine hydrochloride]",56.73
5,"CCC[C@H](Nc1nc(-c2ccc(NC(=O)NCC)c(OC)c2)ncc1C)c1cccnc1 [ONC0004959, cyt997]",62.33
6,"COc1cc2ncc(-c3ccccc3)nc2cc1OC [ONC0004511, tyrphostin ag 1296 ag 1296]",102.9
7,"O=c1cc(N2CCNCC2)oc2c(-c3ccccc3)cccc12 [ONC0003548, ly303511]",112.3
8,"O=C1C2CCN(CC2)C1(CO)CO [ONC0001542, prima1]",119.7
9,"CN1CCCN=C1COC(=O)C(O)(c1ccccc1)C1CCCCC1 (centres unmarked) [ONC0002414, oxyphencyclimine hydrochloride]",137.8
10,"CNC(=O)c1cccc(NC(=O)N2CCC(Oc3ccccc3Cl)CC2)c1 [ONC0000190, a939572]",66.79
11,"CC[C@H]1OC(=O)[C@@](C)(F)C(=O)[C@H](C)[C@@H](O[C@@H]2O[C@H](C)C[C@H](N(C)C)[C@H]2O)[C@](C)(OC)C[C@@H](C)C(=O)[C@H](C)[C@H]2N(CCCCn3cc(-c4cccc(N)c4)nn3)C(=O)O[C@]12C [ONC0002024, solithromycin]",84.59
12,"CC(C)(Oc1ccc(Cl)cc1)C(=O)O [ONC0000304, clofibric acid]",84.93
13,"COc1ccc([C@]2(O)CC[C@@H](N3CC[C@@H](NC(=O)CNC(=O)c4cccc(C(F)(F)F)c4)C3)CC2)cn1 [ONC0000726, incb 3284]",81.5
14,"COc1ccc(CCNCC(O)COc2cccc(C)c2)cc1OC (centres unmarked) [ONC0003395, bevantolol hcl]",57.46
15,"COc1cc(Nc2ncc(F)c(Nc3ccc4c(n3)NC(=O)C(C)(C)O4)n2)cc(OC)c1OC [ONC0005012, r406free base]",67.53
16,"CCC(C(=O)O)c1ccc(CC(C)C)cc1 (centres unmarked) [ONC0004724, butibufen]",92.99
17,"CN(C)CC/C=C1\c2ccccc2CSc2ccccc21 [ONC0002296, dosulepin]",69.48

# In another format: results already given.
row	SMILES	% viability [%]
5	CCC[C@H](Nc1nc(-c2ccc(NC(=O)NCC)c(OC)c2)ncc1C)c1cccnc1 [ONC0004959, cyt997]	62.33
12	CC(C)(Oc1ccc(Cl)cc1)C(=O)O [ONC0000304, clofibric acid]	84.93
